This series is described as follows: general procedure: Fmoc solid-phase peptide synthesis; 2-chlorotrityl resin (Chempep, 0.81 mmol/g). Particulars: for conjugation yield: conjugation step; for step yield: late stage modification step.

“3-((4-((14S,17S)-1-(2,5-dioxo-2,5-dihydro-1H-pyrrol-1-yl)-14-isopropyl-12,15-dioxo-17-(3-ureidopropyl)-3,6,9-trioxa-13,16-diazaoctadecan-18-amido)benzyl)oxy)-N-((7R,11S,19aS,26R,30S,38aS)-26-(3-hydroxyquinoline-2-carboxamido)-11,30-diisopropyl-12,15,31,34-tetramethyl-6,10,13,16,19,25,29,32,35,38-decaoxohexatriacontahydro-2H,6H-dipyrido[1,2-a:1′,2′-q][1,4,7,10,13,17,20,23,26,29]decaazacyclodotriacontin-7-yl)quinoline-2-carboxamide” displayed a conjugation yield of 58% yield.

As to “(2S,3S,4S,5R,6S)-6-(4-(((2-(((7R,11S,19aS,26R,30S,38aS)-26-(3-((4-((14S,17S)-1-(2,5-dioxo-2,5-dihydro-1H-pyrrol-1-yl)-14-isopropyl-12,15-dioxo-17-(3-ureidopropyl)-3,6,9-trioxa-13,16-diazaoctadecan-18-amido)benzyl)oxy)quinoline-2-carboxamido)-11,30-diisopropyl-12,15,31,34-tetramethyl-6,10,13,16,19,25,29,32,35,38-decaoxohexatriacontahydro-2H,6H-dipyrido[1,2-a:1′,2′-q][1,4,7,10,13,17,20,23,26,29]decaazacyclodotriacontin-7-yl)carbamoyl)quinolin-3-yl)oxy)methyl) phenoxy)-3,4,5-trihydroxytetrahydro-2H-pyran-2-carboxylic acid”, the conjugation yield is given as 66% yield.

Substance “(2S,3S,4S,5R,6S)-6-((2-(((5aS,9R,15aS,24S,28R,34aS)-9-(3-((4-((14S,17S)-1-(2,5-dioxo-2,5-dihydro-1H-pyrrol-1-yl)-14-isopropyl-12,15-dioxo-17-(3-ureidopropyl)-3,6,9-trioxa-13,16-diazaoctadecan-18-amido)benzyl)oxy)quinoline-2-carboxamido)-24-isopropyl-20,23,39-trimethyl-6,10,16,19,22,25,29,35,38,41-decaoxotetracontahydro-1H,12H-azepino[1,2-j]dipyrido[1,2-a:1′,2′-q][1,4,7,10,13,17,20,23,26,29]decaazacyclodotriacontin-28-yl)carbamoyl)quinolin-3-yl)oxy)-3,4,5-trihydroxytetrahydro-2H-pyran-2-carboxylic acid” came in with a conjugation yield of 58% yield.

Consider “(2S,3S,4S,5R,6S)-6-((2-(((7R,11S,19aS,26R,30S,38aS)-7-(3-((4-((14S,17S)-1-(2,5-dioxo-2,5-dihydro-1H-pyrrol-1-yl)-14-isopropyl-12,15-dioxo-17-(3-ureidopropyl)-3,6,9-trioxa-13,16-diazaoctadecan-18-amido)benzyl)oxy)quinoline-2-carboxamido)-11,30-diisopropyl-12,15,31,34-tetramethyl-6,10,13,16,19,25,29,32,35,38-decaoxotetratriacontahydro-2H,6H,10H-dipyrido[2,1-b1: 2′,1′-l][1]oxa[4,7,10,13,17,20,23,26,29]nonaazacyclodotriacontin-26-yl)carbamoyl)quinolin-3-yl)oxy)-3,4,5-trihydroxytetrahydro-2H-pyran-2-carboxylic acid”, for which the conjugation yield was 42% yield.

On to “(2S,3S,4S,5R,6S)-6-((2-(((7R,11S,19aS,26R,30S,38aS)-7-(3-((4-((14S,17S)-1-(2,5-dioxo-2,5-dihydro-1H-pyrrol-1-yl)-14-isopropyl-12,15-dioxo-17-(3-ureidopropyl)-3,6,9-trioxa-13,16-diazaoctadecan-18-amido)benzyl)oxy)quinoline-2-carboxamido)-11,30-diisopropyl-12,15,31,34-tetramethyl-6,13,16,19,25,29,32,35,38-nonaoxotetratriacontahydro-2H,6H,10H-dipyrido[2,1-b1: 2′,1′-l][1]oxa[4,7,10,13,17,20,23,26,29]nonaazacyclodotriacontin-26-yl)carbamoyl)quinolin-3-yl)oxy)-3,4,5-trihydroxytetrahydro-2H-pyran-2-carboxylic acid”, for which the conjugation yield is on record as 47% yield.

Regarding “(2S,3S,4S,5R,6S)-6-((2-(((7R,11S,19aS,26R,30S,38aS)-11,30-di((S)-sec-butyl)-26-(3-((4-((14S,17S)-1-(2,5-dioxo-2,5-dihydro-1H-pyrrol-1-yl)-14-isopropyl-12,15-dioxo-17-(3-ureidopropyl)-3,6,9-trioxa-13,16-diazaoctadecan-18-amido)benzyl)oxy)quinoline-2-carboxamido)-12,15,31,34-tetramethyl-6,10,13,16,19,25,29,32,35,38-decaoxohexatriacontahydro-2H,6H-dipyrido[1,2-a:1′,2′-q][1,4,7,10,13,17,20,23,26,29]decaazacyclodotriacontin-7-yl)carbamoyl)quinolin-3-yl)oxy)-3,4,5-trihydroxytetrahydro-2H-pyran-2-carboxylic acid”, the conjugation yield amounted to 54% yield.

“(2S,3S,4S,5R,6S)-6-((2-(((7R,11S,19aS,26R,30S,38aS)-11-((S)-sec-butyl)-7-(3-((4-((14S,17S)-1-(2,5-dioxo-2,5-dihydro-1H-pyrrol-1-yl)-14-isopropyl-12,15-dioxo-17-(3-ureidopropyl)-3,6,9-trioxa-13,16-diazaoctadecan-18-amido)benzyl)oxy)quinoline-2-carboxamido)-30-isopropyl-12,15,31,34-tetramethyl-6,13,16,19,25,29,32,35,38-nonaoxotetratriacontahydro-2H,6H,10H-dipyrido[2,1-b1: 2′,1′-l][1]oxa[4,7,10,13,17,20,23,26,29]nonaazacyclodotriacontin-26-yl)carbamoyl)quinolin-3-yl)oxy)-3,4,5-trihydroxytetrahydro-2H-pyran-2-carboxylic acid” registered a conjugation yield of 30% yield.

In turn, “(2S,3S,4S,5R,6S)-6-((2-(((7R,11S,19aS,26R,30S,38aS)-26-(3-((4-((14S,17S)-1-(2,5-dioxo-2,5-dihydro-1H-pyrrol-1-yl)-14-isopropyl-12,15-dioxo-17-(3-ureidopropyl)-3,6,9-trioxa-13,16-diazaoctadecan-18-amido)benzyl)oxy)quinoline-2-carboxamido)-11,30-diisopropyl-12,15,31,34-tetramethyl-6,10,13,16,19,25,29,32,35,38-decaoxohexatriacontahydro-2H,6H-dipyrido[1,2-a:1′,2′-q][1,4,7,10,13,17,20,23,26,29]decaazacyclodotriacontin-7-yl)carbamoyl)quinolin-3-yl)oxy)-3,4,5-trihydroxytetrahydro-2H-pyran-2-carboxylic acid” registered a conjugation yield of 40% yield.

In turn, “(2S,3S,4S,5R,6S)-6-((2-(((7R,11S,19aS,26R,30S,38aS)-26-(3-((4-((14S,17S)-1-(2,5-dioxo-2,5-dihydro-1H-pyrrol-1-yl)-14-isopropyl-12,15-dioxo-17-(3-ureidopropyl)-3,6,9-trioxa-13,16-diazaoctadecan-18-amido)benzyl)oxy)quinoline-2-carboxamido)-15,34-diethyl-11,30-diisopropyl-12,31-dimethyl-6,10,13,16,19,25,29,32,35,38-decaoxohexatriacontahydro-2H,6H-dipyrido[1,2-a:1′,2′-q][1,4,7,10,13,17,20,23,26,29]decaazacyclodotriacontin-7-yl)carbamoyl)quinolin-3-yl)oxy)-3,4,5-trihydroxytetrahydro-2H-pyran-2-carboxylic acid” displayed a conjugation yield of 37% yield.

Substance “(2S,3S,4S,5R,6S)-6-((2-(((7R,11S,19aS,26R,30S,38aS)-30-cyclohexyl-26-(3-((4-((14S,17S)-1-(2,5-dioxo-2,5-dihydro-1H-pyrrol-1-yl)-14-isopropyl-12,15-dioxo-17-(3-ureidopropyl)-3,6,9-trioxa-13,16-diazaoctadecan-18-amido)benzyl)oxy)quinoline-2-carboxamido)-11-isopropyl-12,15,31,34-tetramethyl-6,10,13,16,19,25,29,32,35,38-decaoxohexatriacontahydro-2H,6H-dipyrido[1,2-a:1′,2′-q][1,4,7,10,13,17,20,23,26,29]decaazacyclodotriacontin-7-yl)carbamoyl)quinolin-3-yl)oxy)-3,4,5-trihydroxytetrahydro-2H-pyran-2-carboxylic acid” gave a conjugation yield of 60% yield.

In the case of “(7R,11S,19aS,26R,30S,38aS)-7,26-diamino-11-isopropyl-12,15,31,34-tetramethyl-30-phenyltetracosahydro-2H,6H-dipyrido[1,2-a:1′,2′-q]”, the step yield (over 2 steps) stood at 53% over 2 steps.

Substance “(7R,11S,19aS,26R,38aS)-26-(((benzyloxy)carbonyl)amino)-11-isopropyl-12,15,30,30,31,34-hexamethyl-” displayed a step yield of 45% yield.

With “(7R,19aS,26R,30S,38aS)-7,26-diamino-30-isopropyl-11,11,12,15,31,34-hexamethyltetracosahydro-2H,6H-dipyrido[1,2-a:1′,2′-q]”, for the setting “monotrifluoroacetate salt”, the step yield is recorded as 85% yield.

In turn, “(7′R,19a'S,26′R,30'S,38a'S)-7′-(((benzyloxy)carbonyl)amino)-30′-isopropyl-12′,15′,31′,34′-tetramethyl-” came in with a step yield of 45% yield.

Where the note is “whole synthesis”, “(S)-1-((9S,13R)-1-((S)-1-((R)-3-((S)-2-(2-(2-amino-N-methylacetamido)-N-methylacetamido)-3-methylbutanamido)-2-(((benzyloxy)carbonyl)amino)propanoyl) piperidin-2-yl)-13-((tert-butoxycarbonyl)amino)-9-isopropyl-5,8-dimethyl-1,4,7,10-tetraoxo-2,5,8,11-tetraazatetradecan-14-oyl) piperidine-2-carboxylic acid” returned a crude mass of 1 g and a crude yield of 80%.

For the substance “(S)-1-((R)-2-(((benzyloxy)carbonyl)amino)-3-((S)-1-(N—(((S)-1-((R)-2-((tert-butoxycarbonyl)amino)-3-((S)-1-(N-glycyl-N-methylglycyl) azepane-2-carboxamido) propanoyl)piperidine-2-carbonyl)glycyl)-N-methylglycyl) azepane-2-carboxamido) propanoyl)piperidine-2-carboxylic acid”, the crude yield (whole synthesis) is 77% yield.

The record behind these values is US20240376154A1 (ZYMEWORKS BC INC., priority 2023, published 2024).
